The results in this text go back to PMC7819943, “Rice protein-binding microarrays: a tool to detect cis-acting elements near promoter regions in rice”.

Protein sequences, listed by entry. Tags and fused reporters are not part of them.
UniProt Q0JBA9, entry or part of it: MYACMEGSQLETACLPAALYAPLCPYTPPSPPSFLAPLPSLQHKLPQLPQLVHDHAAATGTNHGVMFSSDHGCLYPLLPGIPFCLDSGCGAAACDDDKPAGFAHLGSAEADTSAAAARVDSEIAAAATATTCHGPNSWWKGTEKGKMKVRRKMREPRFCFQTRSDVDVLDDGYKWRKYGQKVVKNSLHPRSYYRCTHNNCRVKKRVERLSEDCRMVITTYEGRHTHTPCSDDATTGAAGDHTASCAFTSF

The list shows a part of the results.

For the assay, the target named is OsWRKY34 (Oryza sativa, UniProt Q0JBA9 1-250). In words: protein-binding microarray (RPBM); PBS, 2% BSA, 51.3 ng/ul salmon testes DNA, 50 uM zinc acetate, 200 nM TF, 25 C, 1 h; high values mean tight binding. As to conditions: protein: recombinant; tags: N-terminal polyhistidine and DsRed monomer fusion (pET32a); label: CyDye5-dUTP incorporated in the synthesized complementary strand; 3' TTTTT single-stranded linker to array surface; dsDNA, one strand shown. The procedure, abridged:
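The binding signal is fluorescence intensity per feature, in arbitrary units, read on an Axon 4000B scanner. Polyhistidine- and DsRed-tagged transcription factors (N-terminal fusions) from E. coli BL21-CodonPlus were purified on Ni–NTA and applied at 200 nM for 1 h at 25 °C to a double-stranded, BSA-blocked custom Agilent array in buffer with 50 µM zinc acetate.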
For “TCCAAACGATTATTCCTACCGTTTTTATGTGTTTTCTTACCGGAGTCACCTAGTGCAG”, the binding signal is 10300 fluorescence intensity (a.u.). For the sequence “TACTACTTCAGTTCTCGCTCGTTCTTATCCTCCTCTGCCACGGAGTCACCTAGTGCAG”, the binding signal was 8650 fluorescence intensity (a.u.). In the case of “CGGCCCAGGTGGGAGAGGAGGGGAGGGGAGGGGAGGGATGCGGAGTCACCTAGTGCAG”, the binding signal is 19800 fluorescence intensity (a.u.).

For “TCAAGGAACAATTCATCGCCCTTTGTTCTTACCCCAACATCGGAGTCACCTAGTGCAG”, the binding signal was 8100 fluorescence intensity (a.u.). Turning to “TGTGGACAAATCATTCGGGGTGACATTTGTGTGTTCTTGTCGGAGTCACCTAGTGCAG”, the binding signal was 8080 fluorescence intensity (a.u.). Under “CATGGCTCATGTGTAATTGATCTGTTTGATGGGCTACTATCGGAGTCACCTAGTGCAG” stands 8150 fluorescence intensity (a.u.). Consider “ACTTTTGGACATGCTTTATCCATAACCCCGACAATACTCACGGAGTCACCTAGTGCAG”, for which the binding signal is 8610 fluorescence intensity (a.u.). Take “CTCGGCTGGTTCGCCTCCTACTCTACGCTTGCTGCTGCAGCGGAGTCACCTAGTGCAG”: the binding signal is 9320 fluorescence intensity (a.u.). In the case of “CCACGCCACGCCCACGCCCACGCCCACGCCCACGCCTCGCCGGAGTCACCTAGTGCAG”, the binding signal is 9070 fluorescence intensity (a.u.). On to “CGTGTACACCCAACACGAGGCCCGTTTTCTCAGCCCTAGTCGGAGTCACCTAGTGCAG”, for which the binding signal is 8440 fluorescence intensity (a.u.). In the case of “AGGGGTGTCCTTGTCTTTCGCCATTTTCTCTCTCGCTCGGCGGAGTCACCTAGTGCAG”, the binding signal is 10200 fluorescence intensity (a.u.). With “CGTTTTTCTTCTCACCTCTTCTCTCTTATTCACATGTGTGCGGAGTCACCTAGTGCAG”, the binding signal is 8990 fluorescence intensity (a.u.). With “CCAGGAGGGTGAGCTTGATGCAGGGGCGGGTGCGGGCGAGCGGAGTCACCTAGTGCAG”, the binding signal was 12500 fluorescence intensity (a.u.). In the case of “ATGTGTTTGGTTGAGAGGCTAGAAGGGATGGGATGGTTCACGGAGTCACCTAGTGCAG”, the binding signal is 10300 fluorescence intensity (a.u.). For the sequence “CTTGCTTGATTTGCCTCGCCTGCCCTTTTTCTCGCGCGGCCGGAGTCACCTAGTGCAG”, the binding signal was 9260 fluorescence intensity (a.u.). With “TTCTCCTCGCGTTATCCTTCGCCTCCGCCGCGATGCTCTCCGGAGTCACCTAGTGCAG”, the binding signal is 12200 fluorescence intensity (a.u.). In the case of “AGTAGCATTGCCCATTAGCACTAAGTACAATTAGTGAATTCGGAGTCACCTAGTGCAG”, the binding signal is 8200 fluorescence intensity (a.u.).

Regarding “GTTAAGGGGTATTTCTGTCTTTTTGCGTTGTACTCTTCTCCGGAGTCACCTAGTGCAG”, the binding signal was 10500 fluorescence intensity (a.u.). On to “AAACCCAACATTGTAACCCTGCATTGCACATCACAGAAACCGGAGTCACCTAGTGCAG”, for which the binding signal was 9520 fluorescence intensity (a.u.). “ACAAGGATGGGAATGAAGTGGGCTGTGATTGTGAGTTTGTCGGAGTCACCTAGTGCAG”: the binding signal was 8770 fluorescence intensity (a.u.). In the case of “GCTTATTCACTAGATTATTGCTGCGGGTTATATACTCCGTCGGAGTCACCTAGTGCAG”, the binding signal was 10100 fluorescence intensity (a.u.). As for “TTCCTTCAGTATCAATGGGCCTTTGTTTTTTACTCACTCCCGGAGTCACCTAGTGCAG”, the binding signal is 8730 fluorescence intensity (a.u.). “TTTTATGTGTAAAATATTTTCACCGTGTTATATATGTTCACGGAGTCACCTAGTGCAG”: the binding signal was 10300 fluorescence intensity (a.u.). Under “TTATTTGTTCATCCGCGTTGTAGTTCAGTGCCGTCTCCTTCGGAGTCACCTAGTGCAG” stands 10200 fluorescence intensity (a.u.). For “GCTGCGCACCTAATGCTACTGTTTTGTTAGTATTTATTTACGGAGTCACCTAGTGCAG”, the binding signal is 8460 fluorescence intensity (a.u.). Take “ATTCTGGCTTTGCTGCTAGTCCCATCACAACTCTACTAGCCGGAGTCACCTAGTGCAG”: the binding signal is 8610 fluorescence intensity (a.u.).

Regarding “TGTATTAGGCACTCTCCATATCTCTTACCTCTCATCTTGGCGGAGTCACCTAGTGCAG”, the binding signal was 10600 fluorescence intensity (a.u.). For “CTCCGTTTCATATTTTAAGACTTTCTTGTATTGCCCAGTTCGGAGTCACCTAGTGCAG”, the binding signal is 12900 fluorescence intensity (a.u.). On to “TCCCTGACCCCACCAGATCATACTCAGATATATACTCCCGCGGAGTCACCTAGTGCAG”, for which the binding signal was 8320 fluorescence intensity (a.u.). For “TTTCCGTCCGAATTTCTTGGTGAAACATGTTTTTCTTTCCCGGAGTCACCTAGTGCAG”, the binding signal is 10800 fluorescence intensity (a.u.).

On to “GCTCTAATTAATTCCGCACTTGTTAATTTTTGATCTGCTACGGAGTCACCTAGTGCAG”, for which the binding signal is 12000 fluorescence intensity (a.u.).

As for “TTGAAGTTTTTGGCAGGGGTTAGTTTCGAAATAAGTTTTCCGGAGTCACCTAGTGCAG”, the binding signal is 8480 fluorescence intensity (a.u.).

“AATTATGCGCGACCAAATTCTTTTTGCACTGGGCGGGGCCCGGAGTCACCTAGTGCAG”: the binding signal is 10600 fluorescence intensity (a.u.). Take “TCCTTCCACCCTTGAGGGTTTTTGTTCGGTCTTATCCGCTCGGAGTCACCTAGTGCAG”: the binding signal is 9760 fluorescence intensity (a.u.).

As to “CTACAAATACCCACGTACTCTGCTGAGTTTTCGCACCTCTCGGAGTCACCTAGTGCAG”, the binding signal was 9000 fluorescence intensity (a.u.). On to “TTTTTTTGTGTTTTGCAATTTTATGTTTTGCACTTATTTTCGGAGTCACCTAGTGCAG”, for which the binding signal was 8070 fluorescence intensity (a.u.). For the sequence “TATTTTAATGTATGATGCCGTTGACTTTTTAACCAACGTTCGGAGTCACCTAGTGCAG”, the binding signal was 27000 fluorescence intensity (a.u.). With “TGTGTTAGCACGGTTTATCGTTTATACCCTTCACGAGTTGCGGAGTCACCTAGTGCAG”, the binding signal was 8050 fluorescence intensity (a.u.). With “ATAGCCAGTATCCTCACCTCACCCACAGCCCACCAATCACCGGAGTCACCTAGTGCAG”, the binding signal was 9070 fluorescence intensity (a.u.). For the sequence “ATCGCTTCTCTTCTTGAAGACGTCGTTTTGGCATCCCTTACGGAGTCACCTAGTGCAG”, the binding signal was 8720 fluorescence intensity (a.u.).

Turning to “TCTCGCTTGTTCTTCTTCACTTTCACTTTTAAAAACTTCCCGGAGTCACCTAGTGCAG”, the binding signal was 8130 fluorescence intensity (a.u.). In the case of “ACACAGGGGAGGGGCGGCGATCTCCATTTGGCGAGGAGAGCGGAGTCACCTAGTGCAG”, the binding signal is 8810 fluorescence intensity (a.u.).
